# According to paper PMC7417866, “Gating Properties of Mutant Sodium Channels and Responses to Sodium Current Inhibitors Predict Mexiletine-Sensitive Mutations of Long QT Syndrome 3” (Frontiers in Pharmacology, 2020):
# Sequences of proteins named here, by UniProt entry; tags and fusion partners are left off.
# UniProt Q14524, whole entry N1325S: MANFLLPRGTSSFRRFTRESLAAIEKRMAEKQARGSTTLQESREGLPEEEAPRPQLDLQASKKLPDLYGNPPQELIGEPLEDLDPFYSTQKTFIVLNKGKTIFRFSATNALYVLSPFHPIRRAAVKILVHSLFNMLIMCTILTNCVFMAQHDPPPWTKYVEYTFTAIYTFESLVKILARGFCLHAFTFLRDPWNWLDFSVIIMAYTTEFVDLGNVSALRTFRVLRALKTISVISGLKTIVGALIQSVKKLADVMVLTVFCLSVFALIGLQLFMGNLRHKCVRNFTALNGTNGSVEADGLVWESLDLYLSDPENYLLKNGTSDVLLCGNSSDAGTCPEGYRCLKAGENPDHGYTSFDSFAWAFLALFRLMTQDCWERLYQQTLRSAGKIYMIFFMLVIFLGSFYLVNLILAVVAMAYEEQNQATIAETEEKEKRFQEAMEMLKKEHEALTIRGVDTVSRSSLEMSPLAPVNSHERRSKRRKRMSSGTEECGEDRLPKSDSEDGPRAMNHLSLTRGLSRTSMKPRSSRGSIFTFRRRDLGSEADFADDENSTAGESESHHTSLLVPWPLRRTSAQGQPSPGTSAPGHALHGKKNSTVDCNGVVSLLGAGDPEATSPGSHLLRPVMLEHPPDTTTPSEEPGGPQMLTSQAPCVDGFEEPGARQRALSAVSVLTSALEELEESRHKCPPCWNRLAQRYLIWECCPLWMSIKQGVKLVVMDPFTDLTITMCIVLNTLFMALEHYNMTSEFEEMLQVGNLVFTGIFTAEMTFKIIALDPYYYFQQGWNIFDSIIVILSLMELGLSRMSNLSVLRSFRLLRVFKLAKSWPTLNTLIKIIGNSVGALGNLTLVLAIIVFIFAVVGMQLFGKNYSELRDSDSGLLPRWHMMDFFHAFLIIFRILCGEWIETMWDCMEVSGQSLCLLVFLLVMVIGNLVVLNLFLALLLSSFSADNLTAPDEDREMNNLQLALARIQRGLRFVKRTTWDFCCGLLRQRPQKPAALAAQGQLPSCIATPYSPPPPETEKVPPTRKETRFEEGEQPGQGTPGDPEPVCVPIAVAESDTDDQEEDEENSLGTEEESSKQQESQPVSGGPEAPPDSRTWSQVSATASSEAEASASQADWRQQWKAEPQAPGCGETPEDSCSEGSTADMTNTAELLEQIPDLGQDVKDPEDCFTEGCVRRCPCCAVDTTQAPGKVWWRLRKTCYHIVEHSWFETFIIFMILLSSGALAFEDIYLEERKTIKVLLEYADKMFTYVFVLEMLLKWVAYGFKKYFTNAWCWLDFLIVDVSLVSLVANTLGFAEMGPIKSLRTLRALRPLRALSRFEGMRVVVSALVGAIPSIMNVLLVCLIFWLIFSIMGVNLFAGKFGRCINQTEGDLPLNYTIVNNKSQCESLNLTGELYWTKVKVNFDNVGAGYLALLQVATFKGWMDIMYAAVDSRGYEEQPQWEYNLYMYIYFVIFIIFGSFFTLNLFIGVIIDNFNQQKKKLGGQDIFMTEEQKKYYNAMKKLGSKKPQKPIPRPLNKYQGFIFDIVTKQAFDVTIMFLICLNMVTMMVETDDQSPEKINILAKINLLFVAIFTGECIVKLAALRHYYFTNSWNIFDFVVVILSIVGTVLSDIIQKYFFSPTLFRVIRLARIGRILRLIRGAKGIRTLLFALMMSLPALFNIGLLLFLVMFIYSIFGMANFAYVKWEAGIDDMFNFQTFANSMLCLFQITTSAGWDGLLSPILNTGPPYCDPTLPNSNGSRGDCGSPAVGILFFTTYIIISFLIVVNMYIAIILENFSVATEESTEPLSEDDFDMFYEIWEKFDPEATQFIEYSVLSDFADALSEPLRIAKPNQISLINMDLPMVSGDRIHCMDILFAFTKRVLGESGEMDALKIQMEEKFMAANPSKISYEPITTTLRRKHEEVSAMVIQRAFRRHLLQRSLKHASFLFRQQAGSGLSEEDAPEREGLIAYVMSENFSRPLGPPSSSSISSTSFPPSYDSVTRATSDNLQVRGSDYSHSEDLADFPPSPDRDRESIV
# UniProt Q14524, whole entry R1623Q: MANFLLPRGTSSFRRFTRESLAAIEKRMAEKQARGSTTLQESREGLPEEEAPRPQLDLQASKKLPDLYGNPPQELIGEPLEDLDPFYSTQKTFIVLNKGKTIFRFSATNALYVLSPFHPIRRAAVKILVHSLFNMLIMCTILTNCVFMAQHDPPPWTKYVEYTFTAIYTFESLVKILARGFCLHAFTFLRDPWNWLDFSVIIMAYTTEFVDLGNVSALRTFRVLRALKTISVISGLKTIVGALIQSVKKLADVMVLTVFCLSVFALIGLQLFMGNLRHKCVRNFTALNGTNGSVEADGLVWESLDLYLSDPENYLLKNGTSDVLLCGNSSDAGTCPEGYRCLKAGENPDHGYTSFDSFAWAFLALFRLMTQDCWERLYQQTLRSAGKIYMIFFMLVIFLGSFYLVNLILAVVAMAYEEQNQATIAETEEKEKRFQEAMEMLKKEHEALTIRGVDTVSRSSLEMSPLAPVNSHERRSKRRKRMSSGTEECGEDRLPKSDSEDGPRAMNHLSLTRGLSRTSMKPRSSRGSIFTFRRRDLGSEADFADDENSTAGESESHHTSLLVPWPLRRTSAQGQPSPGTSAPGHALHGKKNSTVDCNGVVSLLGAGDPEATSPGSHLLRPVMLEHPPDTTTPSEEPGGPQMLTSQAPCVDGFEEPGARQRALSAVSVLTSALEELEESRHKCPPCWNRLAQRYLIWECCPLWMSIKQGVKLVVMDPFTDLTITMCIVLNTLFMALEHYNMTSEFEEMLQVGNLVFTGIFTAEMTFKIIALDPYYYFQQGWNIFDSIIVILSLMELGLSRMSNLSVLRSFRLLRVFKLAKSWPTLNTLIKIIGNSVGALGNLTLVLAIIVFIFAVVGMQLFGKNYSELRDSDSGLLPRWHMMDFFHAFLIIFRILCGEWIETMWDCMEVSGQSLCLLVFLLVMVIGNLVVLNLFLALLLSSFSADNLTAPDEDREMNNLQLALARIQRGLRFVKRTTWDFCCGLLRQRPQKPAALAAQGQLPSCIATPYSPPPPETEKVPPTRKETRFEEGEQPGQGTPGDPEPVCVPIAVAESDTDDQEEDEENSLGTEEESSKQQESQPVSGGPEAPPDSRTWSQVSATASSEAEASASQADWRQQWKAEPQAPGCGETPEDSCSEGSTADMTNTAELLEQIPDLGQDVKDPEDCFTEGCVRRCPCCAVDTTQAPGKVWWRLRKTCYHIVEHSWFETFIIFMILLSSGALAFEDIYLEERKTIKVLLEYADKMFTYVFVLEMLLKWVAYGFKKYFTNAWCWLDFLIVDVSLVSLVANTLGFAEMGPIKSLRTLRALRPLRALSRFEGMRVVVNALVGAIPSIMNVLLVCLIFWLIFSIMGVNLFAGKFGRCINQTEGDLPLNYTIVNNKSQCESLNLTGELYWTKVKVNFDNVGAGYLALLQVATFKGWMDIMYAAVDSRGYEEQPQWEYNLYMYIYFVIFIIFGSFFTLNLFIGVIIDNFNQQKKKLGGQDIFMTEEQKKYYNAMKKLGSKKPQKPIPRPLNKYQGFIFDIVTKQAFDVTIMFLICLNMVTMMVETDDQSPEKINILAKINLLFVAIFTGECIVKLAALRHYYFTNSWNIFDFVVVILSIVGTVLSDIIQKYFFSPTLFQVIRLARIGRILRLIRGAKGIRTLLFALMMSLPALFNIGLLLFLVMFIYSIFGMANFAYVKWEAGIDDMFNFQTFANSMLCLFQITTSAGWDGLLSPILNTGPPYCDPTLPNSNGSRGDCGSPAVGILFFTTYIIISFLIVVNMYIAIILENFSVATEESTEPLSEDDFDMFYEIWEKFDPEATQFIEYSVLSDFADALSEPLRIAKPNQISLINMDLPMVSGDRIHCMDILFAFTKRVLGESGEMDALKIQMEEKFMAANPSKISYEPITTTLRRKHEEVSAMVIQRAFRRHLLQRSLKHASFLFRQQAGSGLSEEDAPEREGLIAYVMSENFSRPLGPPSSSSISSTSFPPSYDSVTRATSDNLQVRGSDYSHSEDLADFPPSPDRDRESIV
# UniProt Q14524, whole entry M1652R: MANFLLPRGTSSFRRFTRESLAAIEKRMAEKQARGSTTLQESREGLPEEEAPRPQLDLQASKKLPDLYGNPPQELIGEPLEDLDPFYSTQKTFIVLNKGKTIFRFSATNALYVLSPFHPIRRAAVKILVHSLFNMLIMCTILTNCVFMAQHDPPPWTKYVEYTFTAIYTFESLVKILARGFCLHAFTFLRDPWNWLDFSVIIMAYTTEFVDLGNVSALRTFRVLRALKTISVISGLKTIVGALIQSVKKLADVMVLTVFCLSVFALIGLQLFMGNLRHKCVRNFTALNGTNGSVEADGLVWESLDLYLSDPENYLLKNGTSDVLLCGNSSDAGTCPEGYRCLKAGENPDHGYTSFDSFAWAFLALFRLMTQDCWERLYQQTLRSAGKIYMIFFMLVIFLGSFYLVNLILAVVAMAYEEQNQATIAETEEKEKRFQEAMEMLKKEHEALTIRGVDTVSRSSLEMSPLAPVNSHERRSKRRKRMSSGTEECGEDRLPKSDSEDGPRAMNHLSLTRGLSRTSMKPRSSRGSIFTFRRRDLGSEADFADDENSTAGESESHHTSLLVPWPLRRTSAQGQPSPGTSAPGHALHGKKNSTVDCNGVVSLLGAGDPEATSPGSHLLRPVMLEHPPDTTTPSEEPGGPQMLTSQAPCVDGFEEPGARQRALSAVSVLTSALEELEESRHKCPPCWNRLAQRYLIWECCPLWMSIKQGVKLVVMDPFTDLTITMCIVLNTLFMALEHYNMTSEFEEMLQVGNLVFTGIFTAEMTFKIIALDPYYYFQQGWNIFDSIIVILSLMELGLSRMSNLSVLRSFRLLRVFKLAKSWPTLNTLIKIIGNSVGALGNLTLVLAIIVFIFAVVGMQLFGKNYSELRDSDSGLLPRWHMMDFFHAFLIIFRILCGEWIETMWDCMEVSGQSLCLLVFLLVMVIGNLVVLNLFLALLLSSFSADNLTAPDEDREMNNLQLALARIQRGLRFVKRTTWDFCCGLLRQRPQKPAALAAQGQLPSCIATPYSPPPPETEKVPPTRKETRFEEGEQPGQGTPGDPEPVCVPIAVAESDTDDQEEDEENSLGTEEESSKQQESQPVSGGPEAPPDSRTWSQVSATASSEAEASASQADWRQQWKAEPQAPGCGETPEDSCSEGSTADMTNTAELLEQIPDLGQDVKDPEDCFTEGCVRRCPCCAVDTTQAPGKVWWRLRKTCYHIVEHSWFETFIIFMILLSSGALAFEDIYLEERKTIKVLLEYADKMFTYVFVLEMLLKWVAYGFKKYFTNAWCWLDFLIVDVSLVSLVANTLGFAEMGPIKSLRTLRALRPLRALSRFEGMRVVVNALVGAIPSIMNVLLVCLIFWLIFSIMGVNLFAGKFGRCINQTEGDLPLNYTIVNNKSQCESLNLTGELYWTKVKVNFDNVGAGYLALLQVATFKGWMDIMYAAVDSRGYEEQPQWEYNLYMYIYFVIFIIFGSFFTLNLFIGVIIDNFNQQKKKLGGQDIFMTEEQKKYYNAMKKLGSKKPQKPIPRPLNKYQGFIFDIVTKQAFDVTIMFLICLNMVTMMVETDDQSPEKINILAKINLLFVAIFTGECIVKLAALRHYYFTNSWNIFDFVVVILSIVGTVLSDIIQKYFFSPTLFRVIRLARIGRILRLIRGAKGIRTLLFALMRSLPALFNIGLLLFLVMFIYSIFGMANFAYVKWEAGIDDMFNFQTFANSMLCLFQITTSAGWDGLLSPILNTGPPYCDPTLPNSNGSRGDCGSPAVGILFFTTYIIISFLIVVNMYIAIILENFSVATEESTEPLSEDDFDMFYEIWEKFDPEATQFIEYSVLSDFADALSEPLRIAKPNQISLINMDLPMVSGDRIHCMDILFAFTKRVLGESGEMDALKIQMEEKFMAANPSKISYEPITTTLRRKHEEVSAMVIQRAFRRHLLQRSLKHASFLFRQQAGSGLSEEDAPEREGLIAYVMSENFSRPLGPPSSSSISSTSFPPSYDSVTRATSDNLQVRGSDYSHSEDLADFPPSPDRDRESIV
# Columns and labels:
# Assay in all cases: whole-cell patch clamp, late INa inhibition
# Assay type in all cases: cell-based
# [1] = target: T1, Nav1.5 (SCN5A) with beta-1 subunit (SCN1B) (Homo sapiens, UniProt Q14524, N1325S)
# T1 construct: full-length SCN5A cDNA in pcDNA3.1 co-transfected with SCN1B cDNA (equal amounts) and GFP reporter plasmid in HEK293 cells; with Sodium channel regulatory subunit beta-1
# Description: (§1) whole-cell patch clamp, late INa inhibition on Nav1.5 (SCN5A) with beta-1 subunit (SCN1B)
# [2] = target: T2, Nav1.5 (SCN5A) with beta-1 subunit (SCN1B) (Homo sapiens, UniProt Q14524, R1623Q)
# T2 construct: full-length SCN5A cDNA in pcDNA3.1 co-transfected with SCN1B cDNA (equal amounts) and GFP reporter plasmid in HEK293 cells; with Sodium channel regulatory subunit beta-1
# Description: as §1
# [3] = target: T3, Nav1.5 (SCN5A) with beta-1 subunit (SCN1B) (Homo sapiens, UniProt Q14524, M1652R)
# T3 construct: full-length SCN5A cDNA in pcDNA3.1 co-transfected with SCN1B cDNA (equal amounts) and GFP reporter plasmid in HEK293 cells; with Sodium channel regulatory subunit beta-1
# Description: as §1
compound,measurement,setting,value
CC(C)NCC(O)COc1cccc2ccccc12 (stereo not drawn) [propranolol],IC50,[1],17.6 ± 1.81 µM
same,IC50,[2],23.1 ± 2.35 µM
same,IC50,[3],45 ± 5.69 µM
